Experimental data: paper PMC5045987
No constants are given. Whether binding was seen depends on the method and setting. Some entries that bind do so weakly or less than the wild type.

Biological target: T1, major royal jelly protein 1 (Apis mellifera L.) (UniProt O18330)
T1 sequence: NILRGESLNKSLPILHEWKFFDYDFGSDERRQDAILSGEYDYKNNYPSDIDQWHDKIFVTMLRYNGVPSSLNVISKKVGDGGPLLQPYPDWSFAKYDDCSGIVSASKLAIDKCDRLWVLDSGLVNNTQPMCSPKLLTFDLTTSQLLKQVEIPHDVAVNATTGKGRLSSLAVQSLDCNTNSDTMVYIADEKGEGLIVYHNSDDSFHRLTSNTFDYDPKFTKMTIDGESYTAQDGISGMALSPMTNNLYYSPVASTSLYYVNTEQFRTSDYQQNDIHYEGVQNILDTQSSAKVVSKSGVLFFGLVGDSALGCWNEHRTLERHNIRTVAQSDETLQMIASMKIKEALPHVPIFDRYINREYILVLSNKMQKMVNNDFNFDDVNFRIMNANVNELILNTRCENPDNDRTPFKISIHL
Assay: SEC; native complex (apisin) from royal jelly, precipitated at pH 4.8 and run on Sephacryl S-300HR in 0.1 M phosphate buffer with 0.3 M NaCl, pH 7.2; single peak on size-exclusion HPLC; components of the peak identified by SDS-PAGE, LC-MS of digests and intact mass

binding: binds
B1: apisimin (protein, UniProt Q8ISL8 25-78)
chain: KTSISVKGESNVDVVSQINSLVSSIVSGANVSAVLLAQTLVNILQILIDANVFA
